Source: PMC11928855
Results are given in words; binding and its absence hold for the method and conditions named. Binding seen in cells or lysates may run through a third protein. Some entries that bind do so weakly or less than the wild type.

Chains of the proteins cited; added tags and fusions are not shown.
UniProt P01106: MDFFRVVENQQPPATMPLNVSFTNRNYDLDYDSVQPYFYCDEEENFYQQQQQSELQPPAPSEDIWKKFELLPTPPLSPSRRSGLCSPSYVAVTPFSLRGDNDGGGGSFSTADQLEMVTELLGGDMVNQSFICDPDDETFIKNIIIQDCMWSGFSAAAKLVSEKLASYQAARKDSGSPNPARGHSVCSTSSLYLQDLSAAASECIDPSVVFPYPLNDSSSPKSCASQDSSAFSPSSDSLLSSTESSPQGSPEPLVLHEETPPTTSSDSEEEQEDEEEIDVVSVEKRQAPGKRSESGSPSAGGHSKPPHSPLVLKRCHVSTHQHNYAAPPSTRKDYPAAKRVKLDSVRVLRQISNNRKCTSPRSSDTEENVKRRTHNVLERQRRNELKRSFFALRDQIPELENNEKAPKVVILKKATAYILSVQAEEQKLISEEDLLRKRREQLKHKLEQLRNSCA

Target: T1, activating transcription factor 5 (ATF5) (human (endogenous in KP4)) (UniProt Q9Y2D1)
T1 sequence: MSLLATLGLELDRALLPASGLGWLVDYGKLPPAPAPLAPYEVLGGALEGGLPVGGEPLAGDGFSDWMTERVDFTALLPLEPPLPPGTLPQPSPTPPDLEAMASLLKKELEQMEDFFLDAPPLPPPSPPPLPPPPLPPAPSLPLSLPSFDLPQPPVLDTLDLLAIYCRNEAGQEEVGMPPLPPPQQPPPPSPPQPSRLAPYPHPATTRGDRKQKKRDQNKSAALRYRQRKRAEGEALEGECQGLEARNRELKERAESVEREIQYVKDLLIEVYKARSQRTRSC
Assay: co-IP; lysates of KP4 cells cultured 48 h on collagen-coated plastic dishes (stiff) or on polyacrylamide gels (stiff and soft ECMs); incubated with anti-ATF5 antibody (SD2099) or normal rabbit IgG at 4°C overnight, Capturem IP & Co-IP kit; western blotting with anti-MYC or anti-ATF5 antibody

binding: binds
Substance: MYC (from UniProt P01106 1-454)
